Measurements: PubChem BioAssay (EPA / NIEHS)
Inconclusive means that the source gave no clear call. Such entries were picked first, then a sample of the others. Where the call is inconclusive, the potency comes from a doubtful curve fit. The source made the active and inactive calls. The calls were made as follows: active = hit-call score of the fitted dose curve at least 0.9, where 1 is the maximum; inconclusive = response in the unintended direction; inactive = score below 0.9.

Assays:
[1] = Tanguay_ZF_120hpf_OTIC_legacy: (Legacy) Oregon State University Tanguay Lab 120 Hour Post-fertilization zebrafish Assay for Otic Vesicle Malformation (AID 2283639)
How it was run: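 Brightfield scoring at 120 hpf, binary present/absent; DMSO negative control, 5uM trimethyltin chloride positive control. Static exposure at 28C, final DMSO 0.64% (vol/vol). Dead embryos not scored for malformation.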

[2] = Tanguay_ZF_120hpf_PE_legacy: (Legacy) Oregon State University Tanguay Lab 120 Hour Post-fertilization zebrafish Assay for Pericardial Edema (AID 2283640);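 as to AC50: potency for increased incidence of pericardial edema versus DMSO baseline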
How it was run: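 Read-out is the presence or absence of pericardial edema at 120 hpf under brightfield, with gain of signal fitted against DMSO controls. Larvae (5D wild-type) were statically exposed at 28C with 0.64% final DMSO.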

[3] = Tanguay_ZF_120hpf_SOMI_legacy: (Legacy) Oregon State University Tanguay Lab 120 Hour Post-fertilization zebrafish Assay for Somite Malformation (AID 2283647)
How it was run: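 5D WT zebrafish; chorion removed 4 hpf; 1 embryo/well from 6 hpf; static exposure to 120 hpf, 28C, 0.64% DMSO final. Endpoint: somite malformation, binary, brightfield. Mortality excluded.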

[4] = Tanguay_ZF_120hpf_PFIN_legacy: (Legacy) Oregon State University Tanguay Lab 120 Hour Post-fertilization zebrafish Assay for Pectoral Fin Malformation (AID 2283648);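 also: each larva judged yes or no for fin defect by brightfield with dead larvae skipped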
How it was run: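 Pectoral fin malformation was recorded as a binary endpoint at 120 hpf in wild-type Tropical 5D larvae, which had been dechorionated and exposed statically from 6 hpf at 28C in 0.64% DMSO. Dead embryos were excluded.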

[5] = Tanguay_ZF_120hpf_CFIN_legacy: (Legacy) Oregon State University Tanguay Lab 120 Hour Post-fertilization zebrafish Assay for Caudal Fin Malformation (AID 2283649)
How it was run: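 Embryos were collected from Tropical 5D wild-type adults and dechorionated at 4 hpf. At 6 hpf each was exposed, one per well, at 0.64% DMSO and 28C. At 120 hpf fin morphology was scored; dead embryos were excluded.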

[6] = Tanguay_ZF_120hpf_PIG_legacy: (Legacy) Oregon State University Tanguay Lab 120 Hour Post-fertilization zebrafish Assay for Pigmentation Malformation (AID 2283650)
How it was run: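 Pigment malformation recorded as a binary call at 120 hpf in zebrafish (Tropical 5D) exposed singly from 6 hpf after pronase dechorionation. Static, sealed, 28C exposure, 0.64% DMSO; mortality excludes scoring; positive-direction fit against DMSO.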

[7] = Tanguay_ZF_120hpf_CIRC_legacy: (Legacy) Oregon State University Tanguay Lab 120 Hour Post-fertilization zebrafish Assay for Circulatory Malformation (AID 2283651)
How it was run: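 Static exposure, 6–120 hpf, 28C, sealed and dark; one dechorionated 5D embryo/well; DMSO 0.64% v/v final. Binary circulation endpoint by brightfield; dead embryos not scored.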

[8] = Tanguay_ZF_120hpf_SWIM_legacy: (Legacy) Oregon State University Tanguay Lab 120 Hour Post-fertilization zebrafish Assay for Swim Bladder Malformation (AID 2283654);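 also: swim bladder malformation in each larva scored yes or no under brightfield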
How it was run: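 Scoring is binary for swim bladder defects at 120 hpf, by brightfield inspection of zebrafish larvae. Embryos were exposed singly from 6 hpf after pronase dechorionation, at 28C with 0.64% DMSO; mortality excluded scoring.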

[9] = Tanguay_ZF_120hpf_TRUN_legacy: (Legacy) Oregon State University Tanguay Lab 120 Hour Post-fertilization zebrafish Assay for Truncated Body (AID 2283655)
How it was run: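 5D wild-type larvae; pronase dechorionation; static exposure 6→120 hpf, 28C; DMSO 0.64% final; 5uM trimethyltin chloride positive control. Readout: presence/absence of truncated body, analyzed relative to DMSO.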

[10] = Tanguay_ZF_120hpf_BRAI_legacy: (Legacy) Oregon State University Tanguay Lab 120 Hour Post-fertilization zebrafish Assay for Brain Malformation (AID 2283641)
How it was run: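 Brain malformation in Tropical 5D zebrafish was recorded as a binary endpoint after static compound exposure from early development to 120 hpf at 28C. Activity was analysed against DMSO as negative control.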

For `Oc1cc2ccccc2c2ccccc12`, which AC50 [1] is on record?
The AC50 was active: 10.8 µM.

What about the AC50 [2] of the same molecule?
The AC50 was active: 31.9 µM.

What about the AC50 [3] of the same molecule?
The AC50 was active: 12.4 µM.

And the AC50 [4]?
The AC50 was active: 12.1 µM.

And the AC50 [5]?
Its AC50 is active: 36.5 µM.

What about the AC50 [6] of the same molecule?
Its AC50 is active: 12.9 µM.

What about the AC50 [7] of the same molecule?
The AC50 was active: 10.2 µM.

What about the AC50 [8] of the same molecule?
The AC50 was active: 10.3 µM.

With `Cc1ccc(S(=O)(=O)O)cc1C` as the molecule, how does the outcome [1] read?
The outcome was “inactive”.

And the AC50 [2]?
Its AC50 is inconclusive: 83.5 µM.

And the outcome [3]?
Its outcome is “inactive”.

And the AC50 [6]?
The AC50 was inconclusive: 52.6 µM.

Which AC50 [1] does the source give for `COc1ccc2cc(S(=O)(=O)N[C@H](CC(=O)N[C@H](Cc3ccc(CN4[C@H](C)CCC[C@@H]4C)cc3)C(=O)N(C)C(C)C)c3ccc4c(c3)OCO4)ccc2c1` here?
The AC50 was inconclusive: 32.6 µM.

What about the AC50 [3] of the same molecule?
The AC50 was inconclusive: 4.72 µM.

For `CC(C)c1cccc(C(C)C)c1`, which outcome [1] is on record?
Its outcome is “inactive”.

What about the AC50 [3] of the same molecule?
The AC50 was inconclusive: 20.2 µM.

What about the AC50 [4] of the same molecule?
Its AC50 is inconclusive: 27.6 µM.

And the AC50 [8]?
Its AC50 is inconclusive: 0.0119 µM.

With `COc1ccc(C(=O)Nc2nc3ccccc3c(NCc3ccccc3)c2C#N)cc1` as the molecule, how does the AC50 [1] read?
The AC50 was inconclusive: 20.2 µM.

And the AC50 [2]?
The AC50 was inconclusive: 8.81 µM.

And the AC50 [3]?
Its AC50 is inconclusive: 48.6 µM.

And the AC50 [4]?
Its AC50 is inconclusive: 117 µM.

And the AC50 [5]?
The AC50 was inconclusive: 27.4 µM.

What about the outcome [6] of the same molecule?
The outcome was “inactive”.

And the AC50 [9]?
The AC50 was inconclusive: 125 µM.

With `CCN(CC)CCNc1ccc(CNC=O)c2sc3ccc(OC)cc3c(=O)c12` as the molecule, how does the AC50 [1] read?
The AC50 was inconclusive: 187 µM.

What about the AC50 [4] of the same molecule?
The AC50 was inconclusive: 2.8 µM.

And the outcome [5]?
Its outcome is “inactive”.

What about the outcome [8] of the same molecule?
Its outcome is “inactive”.

What does the source list for `NC(=O)c1nc(-c2cccc(-c3cc(F)ccc3OCC(F)(F)C(F)(F)F)c2)n[nH]1`?
AC50 [1]: active: 27.8 µM; AC50 [10]: active: 26 µM; AC50 [3]: active: 25.8 µM; AC50 [4]: active: 24.8 µM; AC50 [6]: active: 26.7 µM; AC50 [7]: active: 27.3 µM; AC50 [8]: active: 26.4 µM; AC50 [9]: active: 27 µM

For `Cc1cc(CCN2CCN(c3nsc4ccccc34)CC2)cc2c1NC(=O)CC2(C)C`, which AC50 [1] is on record?
The AC50 was active: 6.42 µM.

What about the AC50 [10] of the same molecule?
The AC50 was active: 5.16 µM.

What about the AC50 [3] of the same molecule?
The AC50 was active: 3.88 µM.

What about the AC50 [4] of the same molecule?
Its AC50 is active: 5.62 µM.

And the AC50 [5]?
Its AC50 is active: 6.48 µM.

What about the AC50 [6] of the same molecule?
The AC50 was active: 6.31 µM.

What about the AC50 [7] of the same molecule?
The AC50 was active: 5.83 µM.

And the AC50 [8]?
Its AC50 is active: 3.82 µM.

And the AC50 [9]?
Its AC50 is active: 3.08 µM.

What does the source list for `COC(=O)c1ccccc1C(=O)O`?
AC50 [1]: inconclusive: 171 µM; AC50 [4]: inconclusive: 85.9 µM

For `C=CCCCCCCCCC(=O)O`, which AC50 [1] is on record?
The AC50 was inconclusive: 1.6 µM.

What about the outcome [4] of the same molecule?
Its outcome is “inactive”.

With `CCCc1cc(=O)[nH]c(=S)[nH]1` as the molecule, how does the AC50 [1] read?
The AC50 was inconclusive: 31.9 µM.

What about the outcome [10] of the same molecule?
The outcome was “inactive”.

What about the AC50 [7] of the same molecule?
Its AC50 is inconclusive: 25.1 µM.

With `CN(Cc1cnc2nc(N)nc(N)c2n1)c1ccc(C(=O)N[C@@H](CCC(=O)O)C(=O)O)cc1` as the molecule, how does the AC50 [1] read?
The AC50 was inconclusive: 23.8 µM.

What does the source list for `OC(CCl)CCl`?
outcome [1]: inactive; AC50 [5]: inconclusive: 1.65 µM

With `O=C(O)CC(O)(CC(=O)O)C(=O)O` as the molecule, how does the outcome [1] read?
Its outcome is “inactive”.

What does the source list for `CCCCOC(=O)c1ccc(O)cc1`?
AC50 [1]: active: 46.5 µM; AC50 [3]: active: 63.7 µM; AC50 [5]: active: 50.2 µM; AC50 [6]: active: 36.9 µM; AC50 [7]: active: 40.3 µM; AC50 [8]: active: 46 µM

With `c1ccc2ccccc2c1` as the molecule, how does the outcome [2] read?
Its outcome is “inactive”.

What about the outcome [9] of the same molecule?
Its outcome is “inactive”.

For `CC[C@H]1CC[C@H](NCc2cc3c(cc2OC)[C@H]2C[C@H]2C(=O)N3C)[C@H](c2ccccc2)N1`, which AC50 [10] is on record?
Its AC50 is inconclusive: 200 µM.

And the AC50 [7]?
The AC50 was inconclusive: 140 µM.

With `CCOC(=O)C(C)Oc1ccc(Oc2cnc3cc(Cl)ccc3n2)cc1` (stereo not given) as the molecule, how does the outcome [10] read?
Its outcome is “inactive”.

Which results are given for `CCOC(=O)CC(O)(CC(=O)OCC)C(=O)OCC`?
outcome [10]: inactive; AC50 [5]: inconclusive: 3.13 µM; outcome [7]: inactive; outcome [8]: inactive

Which AC50 [3] does the source give for `CCCCCCCCCCCO` here?
The AC50 was inconclusive: 6.46 µM.

Which AC50 [10] does the source give for `O=C(O)c1cccc(C(=O)O)c1` here?
The AC50 was inconclusive: 202 µM.

Which AC50 [3] does the source give for `N=C(N)c1ccc(OCCCCCOc2ccc(C(=N)N)cc2)cc1` here?
The AC50 was inconclusive: 177 µM.

What about the AC50 [4] of the same molecule?
Its AC50 is inconclusive: 2.21 µM.

What about the AC50 [5] of the same molecule?
Its AC50 is inconclusive: 9.54 µM.

What does the source list for `CC(C)OC(=O)C(C)(C)Oc1ccc(C(=O)c2ccc(Cl)cc2)cc1`?
AC50 [3]: inconclusive: 32.5 µM; AC50 [4]: inconclusive: 62.4 µM; outcome [5]: inactive

Which AC50 [10] does the source give for `COCCO` here?
Its AC50 is inconclusive: 26.7 µM.

And the outcome [9]?
Its outcome is “inactive”.

For `Cc1ccc(C(C)(C)C)c(O)c1`, which outcome [10] is on record?
The outcome was “inactive”.

What about the outcome [8] of the same molecule?
Its outcome is “inactive”.

What does the source list for `O=Cc1ccccc1C=O`?
outcome [10]: inactive; AC50 [4]: inconclusive: 20.2 µM; AC50 [8]: inconclusive: 2.31 µM

Which results are given for `C=C(C)C(=O)OCCC(F)(F)C(F)(F)C(F)(F)C(F)(F)C(F)(F)C(F)(F)F`?
AC50 [10]: inconclusive: 163 µM; AC50 [3]: inconclusive: 155 µM; outcome [6]: inactive

Which AC50 [10] does the source give for `C=CCOC(=O)c1ccccc1C(=O)OCC=C` here?
The AC50 was inconclusive: 1.29 µM.

What about the AC50 [5] of the same molecule?
Its AC50 is inconclusive: 2.52 µM.

And the AC50 [8]?
The AC50 was active: 46.4 µM.

With `CC(C)CCCCCCOC(=O)CCCCC(=O)OCCCCCCC(C)C` as the molecule, how does the outcome [3] read?
Its outcome is “inactive”.

And the AC50 [4]?
Its AC50 is inconclusive: 6.85 µM.

Which AC50 [10] does the source give for `CNC(=O)[C@H]1O[C@@H](n2cnc3c(NCc4cc(Cl)ccc4OCc4cc(C)no4)ncnc32)[C@H](O)[C@@H]1N` here?
The AC50 was inconclusive: 71.5 µM.

And the AC50 [4]?
The AC50 was inconclusive: 183 µM.

And the AC50 [8]?
Its AC50 is inconclusive: 35.8 µM.

With `CCCCOC(=O)CCCCCCCCC(=O)OCCCC` as the molecule, how does the AC50 [10] read?
The AC50 was inconclusive: 8.46 µM.

For `COc1ccc(OC(F)(F)F)cc1CN[C@H]1CCCN[C@H]1c1ccccc1`, which AC50 [3] is on record?
The AC50 was inconclusive: 39.5 µM.
